# Assay results published in patent publication US9809640B2 (priority 2010, dated 2017).
# Strings that start with PEPTIDE1 are HELM notation: dots part the residues, brackets hold end groups and non-standard residues.
# Assay: peptide synthesis
# Settings: conjugation step, HPLC
substance,measurement,value
"PEPTIDE1{[ac].R.Q.I.K.I.W.F.Q.N.R.R.M.K.W.K.K.C.L.R.V.R.L.A.S.H.L.R.K.L.R.K.R.L.L.[am]}|PEPTIDE2{[ac].R.Q.I.K.I.W.F.Q.N.R.R.M.K.W.K.K.C.L.R.V.R.L.A.S.H.L.R.K.L.R.K.R.L.L.[am]}|CHEM1{[BMOE]}$PEPTIDE1,CHEM1,18:R3-1:R1|PEPTIDE2,CHEM1,18:R3-1:R2$$$V2.0",final purity (method not given),98%
